Results as given in paper PMC7733462.
Results are given in words; binding and its absence hold for the method and conditions named. Binding seen in cells or lysates may run through a third protein. Some binding calls cover weakened binding; strength is not graded here.

The chains behind the UniProt entries cited, without tags or fusion partners. Where a name states a change or a piece, a line headed by the entry shows the natural chain unless it says otherwise.
UniProt Q60680: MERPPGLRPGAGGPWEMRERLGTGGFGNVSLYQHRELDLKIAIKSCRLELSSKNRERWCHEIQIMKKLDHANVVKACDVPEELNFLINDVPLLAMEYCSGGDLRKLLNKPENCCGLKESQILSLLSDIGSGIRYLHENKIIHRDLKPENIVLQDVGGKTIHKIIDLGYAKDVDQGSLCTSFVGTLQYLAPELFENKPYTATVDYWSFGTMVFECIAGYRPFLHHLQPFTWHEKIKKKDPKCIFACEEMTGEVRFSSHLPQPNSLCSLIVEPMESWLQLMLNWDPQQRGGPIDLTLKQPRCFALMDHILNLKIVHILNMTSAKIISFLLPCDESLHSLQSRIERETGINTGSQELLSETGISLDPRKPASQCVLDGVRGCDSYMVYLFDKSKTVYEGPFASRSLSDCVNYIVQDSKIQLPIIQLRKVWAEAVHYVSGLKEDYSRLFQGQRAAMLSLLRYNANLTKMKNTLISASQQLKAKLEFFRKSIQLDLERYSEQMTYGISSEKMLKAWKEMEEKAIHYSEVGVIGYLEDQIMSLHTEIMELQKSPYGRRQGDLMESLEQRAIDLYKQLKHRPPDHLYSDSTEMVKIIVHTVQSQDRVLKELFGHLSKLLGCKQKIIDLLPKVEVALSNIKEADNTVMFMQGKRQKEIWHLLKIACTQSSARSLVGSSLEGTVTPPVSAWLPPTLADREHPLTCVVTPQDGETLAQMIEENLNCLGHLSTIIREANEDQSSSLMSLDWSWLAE

Target: T1, TNFR1 (mouse, endogenous) (mouse (endogenous in MEFs)) (UniProt P25118)
T1 sequence: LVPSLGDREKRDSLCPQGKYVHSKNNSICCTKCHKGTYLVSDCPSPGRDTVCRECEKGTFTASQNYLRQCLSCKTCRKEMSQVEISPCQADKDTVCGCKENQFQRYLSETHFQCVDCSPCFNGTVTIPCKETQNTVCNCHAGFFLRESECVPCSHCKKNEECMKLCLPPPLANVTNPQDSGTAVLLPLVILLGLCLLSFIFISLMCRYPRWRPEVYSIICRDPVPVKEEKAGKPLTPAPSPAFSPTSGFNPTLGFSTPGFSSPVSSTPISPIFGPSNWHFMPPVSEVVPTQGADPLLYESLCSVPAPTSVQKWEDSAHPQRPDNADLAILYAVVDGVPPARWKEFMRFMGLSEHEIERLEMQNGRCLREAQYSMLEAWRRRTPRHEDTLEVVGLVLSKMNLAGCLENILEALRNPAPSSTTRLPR
Experiment: co-IP; complex I precipitated with TNFR1 antibody from Ripk1+/+ and Ripk1K612R/K612R MEFs treated with mTNFα (100 ng/ml) for indicated times; western blot

For “IKKα/β (mouse, endogenous) (from UniProt Q60680 1-745; O88351 1-757) (complex)”, the binding was “binds”.
